Results published in PMC7375240, “Covalent Inhibitors Allosterically Block the Activation of Rho Family Proteins and Suppress Cancer Cell Invasion” (Advanced Science, 2020).
Results are given in words; binding and its absence hold for the method and conditions named. Binding calls can cover weak binding; strength is not graded here. Tags and fused reporters may be left off the sequences shown.

Sequences of proteins named here, by UniProt entry; tags and fusion partners are left off. A change or cut given only in a name is not applied to a line headed by its entry.
UniProt P61586: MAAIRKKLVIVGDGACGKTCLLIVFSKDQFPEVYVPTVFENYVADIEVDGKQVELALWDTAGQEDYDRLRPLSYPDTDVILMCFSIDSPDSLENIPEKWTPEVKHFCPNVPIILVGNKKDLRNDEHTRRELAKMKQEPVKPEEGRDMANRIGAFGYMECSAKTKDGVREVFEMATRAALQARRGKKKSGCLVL

Target: (His)6-tagged wild-type RhoA (human) (UniProt P61586)
Experiment: pull-down; (His)6-tagged GTPase held on nickel beads, 2 µg GST-tagged partner added; 20 mM HEPES pH 7.4, 150 mM NaCl, 5 mM MgCl2, 40 mM imidazole, 4 °C, 1 h; GST-tagged protein detected by anti-GST western blot; samples without effect of DC-Rhoin; both purified

| Binder | binding |
| --- | --- |
| GST-tagged RhoGDI (guanine nucleotide dissociation inhibitor ARHGDIA) (protein, UniProt P52565 1-204) MAEQEPTAEQLAQIAAENEEDEHSVNYKPPAQKSIQEIQELDKDDESLRKYKEALLGRVAVSADPNVPNVVVTGLTLVCSSAPGPLELDLTGDLESFKKQSFVLKEGVEYRIKISFRVNREIVSGMKYIQHTYRKGVKIDKTDYMVGSYGPRAEEYEFLTPVEEAPKGMLARGSYSIKSRFTDDDKTDHLSWEWNLTIKKDWKD | binds |
| GST-tagged ARAP3 (Arf-GAP with Rho-GAP domain, ANK repeat, and PH domain-containing protein 3), RhoGAP domain (domain or fragment, UniProt Q8WWN8 906-1107) GTGLQEQQMSRGDIPIIVDACISFVTQHGLRLEGVYRKGGARARSLRLLAEFRRDARSVKLRPGEHFVEDVTDTLKRFFRELDDPVTSARLLPRWREAAELPQKNQRLEKYKDVIGCLPRVNRRTLATLIGHLYRVQKCAALNQMCTRNLALLFAPSVFQTDGRGEHEVRVLQELIDGYISVFDIDSDQVAQIDLEVSLITT | binds |
